Results reported in patent US8828401B2 (Pfizer Inc., priority 2011, dated 2014).

Test: general procedure: solution-phase peptide synthesis; HATU
[1] = late stage modification step, HPLC (Protocol A)
[2] = late stage modification step, HPLC Protocol T
[3] = late stage modification step, over two steps
[4] = coupling step, HPLC (Protocol A)

Substance | step yield (late stage modification step) | step yield (coupling step) | also measured
N,2-dimethylalanyl-N-{(1S,2R)-4-{(2S)-2-[(1R,2R)-3-{[(1R,2S)-2-hydroxy-1-methyl-2-phenylethyl]amino}-1-methoxy-2-methyl-3-oxopropyl]pyrrolidin-1-yl}-2-methoxy-1-[(1S)-1-methylpropyl]-4-oxobutyl}-N-methyl-L-valinamide, trifluoroacetic acid salt | – | – | step yield (coupling step, TFA salt): 74%
2-methylalanyl-N-[(3R,4S,5S)-1-{(2S)-2-[(1R,2R)-3-{[1-(bicyclo[4.2.0]octa-1,3,5-trien-7-yl)-2-methoxy-2-oxoethyl]amino}-1-methoxy-2-methyl-3-oxopropyl]pyrrolidin-1-yl}-3-methoxy-5-methyl-1-oxoheptan-4-yl]-N-methyl-L-valinamide | 73% | – | –
2-methylalanyl-N-[(3R,4S,5S)-3-methoxy-1-{(2S)-2-[(1R,2R)-1-methoxy-2-methyl-3-oxo-3-{[(1S)-2-phenyl-1-(1,3-thiazol-2-yl)ethyl]amino}propyl]pyrrolidin-1-yl}-5-methyl-1-oxoheptan-4-yl]-N-methyl-L-valinamide | 75% | – | final HPLC purity [1]: >97%
(2S)—N-[(2S)-1-{[(3R,4S,5S)-3-methoxy-1-{(2S)-2-[(1R,2R)-1-methoxy-2-methyl-3-oxo-3-{[(1S)-2-phenyl-1-(1,3-thiazol-2-yl)ethyl]amino}propyl]pyrrolidin-1-yl}-5-methyl-1-oxoheptan-4-yl](methyl)amino}-3-methyl-1-oxobutan-2-yl] | 61% | – | final HPLC purity [2]: 96%
N-[(9H-fluoren-9-ylmethoxy)carbonyl]-2-methylalanyl-N-{(3R,4S,5S)-3-methoxy-1-[(2S)-2-{(1R,2R)-1-methoxy-2-methyl-3-oxo-3-[(2-phenylethyl)amino]propyl}pyrrolidin-1-yl]-5-methyl-1-oxoheptan-4-yl}-N-methyl-L-valinamide | – | 19% | –
D-isovalyl-N-{(1S,2R)-4-{(2S)-2-[(1R,2R)-3-{[(1S)-1-benzyl-2-methoxy-2-oxoethyl]amino}-1-methoxy-2-methyl-3-oxopropyl]pyrrolidin-1-yl}-2-methoxy-1-[(1S)-1-methylpropyl]-4-oxobutyl}-N-methyl-L-valinamide | – | 30% | –
N^2-[(1-aminocyclopentyl)carbonyl]-N-[(3R,4S,5S)-3-methoxy-1-{(2S)-2-[(1R,2R)-1-methoxy-2-methyl-3-{[(1S)-2-phenyl-1-(1,3-thiazol-2-yl)ethyl]amino}-3-thioxopropyl]pyrrolidin-1-yl}-5-methyl-1-oxoheptan-4-yl]-N-methyl-L-valinamide | 61% | – | final HPLC purity [1]: >72%
N-{(2R,3R)-3-[(2S)-1-{(3R,4S,5S)-4-[(N-{[(3R)-3-fluoropyrrolidin-3-yl]carbonyl}-L-valyl)(methyl)amino]-3-methoxy-5-methylheptanoyl}pyrrolidin-2-yl]-3-methoxy-2-methylpropanoyl}-L-phenylalanine, trifluoroacetic acid salt | – | – | step yield [3]: 86% over two steps
N^2-[(3-aminooxetan-3-yl)carbonyl]-N-{(3R,4S,5S)-3-methoxy-1-[(2S)-2-{(1R,2R)-1-methoxy-2-methyl-3-oxo-3-[(2-phenylethyl)amino]propyl}pyrrolidin-1-yl]-5-methyl-1-oxoheptan-4-yl}-N-methyl-L-valinamide, acetic acid salt | – | – | step yield (late stage modification step, over two steps, acetic acid salt): 26%, over two steps
N-[(9H-fluoren-9-ylmethoxy)carbonyl]-2-methylalanyl-N-[(3R,4S,5S)-1-{(2S)-2-[(1R,2R)-3-{[2-(cyclohepta-2,4,6-trien-1-yl)ethyl]amino}-1-methoxy-2-methyl-3-oxopropyl]pyrrolidin-1-yl}-3-methoxy-5-methyl-1-oxoheptan-4-yl]-N-methyl-L-valinamide | – | 65% | –
N,2-dimethylalanyl-N-[(3R,4S,5S)-1-{(2S)-2-[(1R,2R)-3-{[(2S)-1-tert-butoxy-1-oxo-3-phenylpropan-2-yl]amino}-1-methoxy-2-methyl-3-oxopropyl]pyrrolidin-1-yl}-3-methoxy-5-methyl-1-oxoheptan-4-yl]-N-methyl-L-valinamide | 81% | – | final HPLC purity [1]: >98%
N-[(3R,4S,5S)-3-methoxy-1-{(2S)-2-[(1R,2R)-1-methoxy-2-methyl-3-oxo-3-{[(1S)-2-phenyl-1-(1,3-thiazol-2-yl)ethyl]amino}propyl]pyrrolidin-1-yl}-5-methyl-1-oxoheptan-4-yl]-N-methyl-L-valinamide | 30% | – | –
1,2-dimethyl-L-prolyl-N-{(1S,2R)-4-{(2S)-2-[(1R,2R)-3-{[(1S)-1-carboxy-2-phenylethyl]amino}-1-methoxy-2-methyl-3-oxopropyl]pyrrolidin-1-yl}-2-methoxy-1-[(1S)-1-methylpropyl]-4-oxobutyl}-N-methyl-L-valinamide | – | 69% | final HPLC purity [4]: >98%
N^2-[(9H-fluoren-9-ylmethoxy)carbonyl]-N-[(3R,4S,5S)-3-methoxy-1-{(2S)-2-[(1R,2R)-1-methoxy-2-methyl-3-oxo-3-{[(1S)-2-phenyl-1-(1,3-thiazol-2-yl)ethyl]amino}propyl]pyrrolidin-1-yl}-5-methyl-1-oxoheptan-4-yl]-N-methyl-L-valinamide | – | 45% | –
1,2-dimethyl-D-prolyl-N-[(3R,4S,5S)-3-methoxy-1-{(2S)-2-[(1R,2R)-1-methoxy-3-{[(2S)-1-methoxy-1-oxo-3-(1,2,3,4-tetrahydroquinolin-6-yl)propan-2-yl]amino}-2-methyl-3-oxopropyl]pyrrolidin-1-yl}-5-methyl-1-oxoheptan-4-yl]-N-methyl-L-valinamide | – | 48% | final HPLC purity [4]: 100%
N^2-[(1-{[(9H -fluoren-9-ylmethoxy)carbonyl]amino}cyclopentyl)carbonyl]-N-[(3R,4S,5S)-3-methoxy-1-{(2S)-2-[(1R,2R)-1-methoxy-2-methyl-3-{[(1S)-2-phenyl-1-(1,3-thiazol-2-yl)ethyl]amino}-3-thioxopropyl]pyrrolidin-1-yl}-5-methyl-1-oxoheptan-4-yl] | – | 67% | –
(2R)—N-[(2S)-1-{[(3R,4S,5S)-1-{(2S)-2-[(1R,2R)-3-{[2-(cyc lohepta-2,4,6-trien-1-yl)ethyl]amino}-1-methoxy-2-methyl-3-oxopropyl]pyrrolidin-1-yl}-3-methoxy-5-methyl-1-oxoheptan-4-yl](methyl)amino}-3-methyl-1-oxobutan-2-yl] | 83% | – | crude HPLC purity (late stage modification step, HPLC Protocol U, hydrochloride salt): 90%
methyl N-{(2R,3R)-3-[(2S)-1-{(3R,4S,5S)-4-[{N-[2,2-dimethyl-3-(methylamino)propanoyl]-L-valyl}(methyl)amino]-3-methoxy-5-methylheptanoyl}pyrrolidin-2-yl]-3-methoxy-2-methylpropanoyl}-L-phenylalaninate, trifluoroacetic acid salt | – | – | step yield (coupling step, TFA salt): 17%
N-[(9H-fluoren-9-ylmethoxy)carbonyl]-2-methylalanyl-N-{(3R,4S,5S)-1-[(2S)-2-{(3R,4R,7S)-7-benzyl-4-methyl-18-[(4S,5R)-5-methyl-2-oxoimidazolidin-4-yl}-5,8,13-trioxo-2-oxa-6,9,12-triazaoctadecan-3-yl}pyrrolidin-1-yl]-3-methoxy-5-methyl-1-oxoheptan-4-yl]-N-methyl-L-valinamide | – | 27% | –
2-methyl-L-prolyl-N-{(1S,2R)-4-{(2S)-2-[(1R,2R)-3-{[(1S)-1-benzyl-2-methoxy-2-oxoethyl]amino}-1-methoxy-2-methyl-3-oxopropyl]pyrrolidin-1-yl}-2-methoxy-1-[(1S)-1-methylpropyl]-4-oxobutyl}-N-methyl-L-valinamide | 89% | – | final HPLC purity [1]: >91%
N-[(3R,4S,5S)-1-{(2S)-2-[(1R,2R)-3-{[2-(cyclohepta-2,4,6-trien-1-yl)ethyl]amino}-1-methoxy-2-methyl-3-oxopropyl]pyrrolidin-1-yl}-3-methoxy-5-methyl-1-oxoheptan-4-yl]-N˜2˜-{[(3R)-3-fluoropyrrolidin-3-yl]carbonyl}-N-methyl-L-valinamide | – | – | final HPLC purity [2]: 84%; step yield [3]: 20% over two steps
N-[5-(2,5-dioxo-2,5-dihydro-1H-pyrrol-1-yl)pentanoyl]-N,2-dimethylalanyl-N-{(1S,2R)-4-{(2S)-2-[(1R,2R)-3-{[(1S)-1-carboxy-2-phenylethyl]amino}-1-methoxy-2-methyl-3-oxopropyl]pyrrolidin-1-yl}-2-methoxy-1-[(1S)-1-methylpropyl]-4-oxobutyl}-N-methyl-L-valinamide | – | – | conjugation yield (conjugation step): 3.3%; final HPLC purity (conjugation step, HPLC (Protocol A)): >97%
2-methylalanyl-N-[(3R,4S,5S)-3-methoxy-1-{(2S)-2-[(1R,2R)-1-methoxy-2-methyl-3-{[(1S)-2-phenyl-1-(1,3-thiazol-2-yl)ethyl]amino}-3-thioxopropyl]pyrrolidin-1-yl}-5-methyl-1-oxoheptan-4-yl]-N-methyl-L-valinamide | 60% | – | final HPLC purity [1]: >75%
methyl N-[(2R,3R)-3-{(2S)-1-[(3R,4S,5S)-4-{[N-(3-amino-2,2-dimethylpropanoyl)-L-valyl](methyl)amino}-3-methoxy-5-methylheptanoyl]pyrrolidin-2-yl}-3-methoxy-2-methylpropanoyl]-L-phenylalaninate | 56% | – | –
1,2-dimethyl-D-prolyl-N-{(1S,2R)-4-{(2S)-2-[(1R,2R)-3-{[(1S)-1-carboxy-2-phenylethyl]amino}-1-methoxy-2-methyl-3-oxopropyl]pyrrolidin-1-yl}-2-methoxy-1-[(1S)-1-methylpropyl]-4-oxobutyl}-N-methyl-L-valinamide | – | 78% | final HPLC purity [4]: >98%
N-methyl-L-valyl-N-[(3R,4S,5S)-1-{(2S)-2-[(1R,2R)-3-{[(1S)-1-carboxy-2-phenylethyl]amino}-1-methoxy-2-methyl-3-thioxopropyl]pyrrolidin-1-yl}-3-methoxy-5-methyl-1-oxoheptan-4-yl]-N-methyl-L-valinamide, trifluoroacetic acid salt | – | – | step yield (late stage modification step, trifluoroacetic acid salt): 59%
